Source: article PMC11589570, “Critical assessment of LC3/GABARAP ligands used for degrader development and ligandability of LC3/GABARAP binding pockets” (Nature Communications, 2024)
Several values for one entry are separate records, joined by “and”; a condition that tells them apart may be missing. Equal values may be shown once. This continues a long series; more values of the same kind are listed elsewhere.

Test system: U2OS cells
Test: Cell growth assay (IncuCyte confluence over 72 h)
Format: cell-based
Design: key: % of well area covered by cells (confluence)
Conditions: listed as 10O5
Method: Cell growth assay: Cell confluence (phase) from RPE1 (hTERT RPE-1, ATCC CLR_4000) or U2OS (ATCC, HTB-96) cell lines were monitored over time with the IncuCyte S3 (Sartiorius, Germany) in 384-well plates in 50 ul DMEM media, supplemented with 10% Fetal Bovine Serum (FBS) 1% penicillin/Streptomycin and incubated 24 h before treatment. Experiment was performed as described in Cano-Franco et al.. […] Cell confluence is represented as % of area covered by cells. Each data point represents the average ratio or confluence obtained from three individual wells of the plate.

Compound: O=C1Nc2ccc(I)cc2C1=Cc1cc(Br)c(O)c(Br)c1 [compound 4]
- U2OS cell growth (100 nM, time 12 h): 35.0644 and 31.1368 and 38.1423
- U2OS cell growth (100 nM, time 14 h): 39.6825 and 32.5147 and 41.0194
- U2OS cell growth (100 nM, time 16 h): 43.7196 and 34.5829 and 41.8557
- U2OS cell growth (100 nM, time 18 h): 44.6048 and 36.7887 and 45.0754
- U2OS cell growth (100 nM, time 20 h): 50.2219 and 32.9514 and 47.1764
- U2OS cell growth (100 nM, time 22 h): 46.2232 and 43.1632 and 48.735
- U2OS cell growth (100 nM, time 24 h): 47.4118 and 39.5106 and 54.7751
- U2OS cell growth (100 nM, time 26 h): 49.6815 and 42.9623 and 54.3754
- U2OS cell growth (100 nM, time 28 h): 62.1531 and 48.8537 and 57.2243
- U2OS cell growth (100 nM, time 30 h): 59.2394 and 47.8128 and 59.6333
- U2OS cell growth (100 nM, time 32 h): 61.7606 and 49.8461 and 58.8145
- U2OS cell growth (100 nM, time 34 h): 55.5071 and 50.9488 and 60.4858
- U2OS cell growth (100 nM, time 36 h): 60.4748 and 57.0533 and 63.2657
- U2OS cell growth (100 nM, time 38 h): 80.2582 and 68.7786 and 75.5151
- U2OS cell growth (100 nM, time 40 h): 74.3424 and 63.4087 and 71.4095
- U2OS cell growth (100 nM, time 42 h): 71.5765 and 63.2134 and 75.4086
- U2OS cell growth (100 nM, time 44 h): 82.0668 and 66.6662 and 76.8801
- U2OS cell growth (100 nM, time 46 h): 67.436 and 54.129 and 79.3314
- U2OS cell growth (100 nM, time 48 h): 81.0144 and 70.0285 and 75.752
- U2OS cell growth (100 nM, time 50 h): 78.848 and 69.4981 and 76.9393
- U2OS cell growth (100 nM, time 52 h): 82.3095 and 73.5248 and 81.7666
- U2OS cell growth (100 nM, time 54 h): 82.3358 and 67.0294 and 86.7412
- U2OS cell growth (100 nM, time 56 h): 88.3673 and 82.0399 and 84.9322
- U2OS cell growth (100 nM, time 58 h): 91.2498 and 85.7258 and 88.8638
- U2OS cell growth (100 nM, time 60 h): 98.2088 and 94.1479 and 95.1492
- U2OS cell growth (100 nM, time 62 h): 91.9817 and 87.5351 and 89.1541
- U2OS cell growth (100 nM, time 64 h): 92.0007 and 87.7247 and 88.321
- U2OS cell growth (100 nM, time 66 h): 90.2359 and 90.969 and 90.8012
- U2OS cell growth (100 nM, time 68 h): 95.5097 and 95.1042 and 93.296
- U2OS cell growth (100 nM, time 70 h): 97.3249 and 94.5386 and 92.5984
- U2OS cell growth (100 nM, time 72 h): 93.7424 and 93.1479 and 94.0851
- U2OS cell growth (500 nM, time 12 h): 36.7144 and 38.5756 and 38.73
- U2OS cell growth (500 nM, time 14 h): 41.1561 and 33.0836 and 38.4862
- U2OS cell growth (500 nM, time 16 h): 44.6966 and 38.2126 and 47.919
- U2OS cell growth (500 nM, time 18 h): 45.5344 and 38.5651 and 46.4003
- U2OS cell growth (500 nM, time 20 h): 47.189 and 36.9149 and 43.5315
- U2OS cell growth (500 nM, time 22 h): 54.9922 and 39.5228 and 47.7375
- U2OS cell growth (500 nM, time 24 h): 50.4803 and 42.6257 and 56.4379
- U2OS cell growth (500 nM, time 26 h): 54.3421 and 45.9175 and 53.1348
- U2OS cell growth (500 nM, time 28 h): 57.7272 and 50.7599 and 51.6698
- U2OS cell growth (500 nM, time 30 h): 57.5615 and 55.6625 and 53.968
- U2OS cell growth (500 nM, time 32 h): 62.0392 and 48.8539 and 57.6942
- U2OS cell growth (500 nM, time 34 h): 54.734 and 55.4305 and 59.287
- U2OS cell growth (500 nM, time 36 h): 66.4356 and 58.3506 and 63.4753
- U2OS cell growth (500 nM, time 38 h): 72.8568 and 61.8043 and 71.7026
- U2OS cell growth (500 nM, time 40 h): 73.4548 and 61.4476 and 68.7714
- U2OS cell growth (500 nM, time 42 h): 74.914 and 67.4603 and 74.9385
- U2OS cell growth (500 nM, time 44 h): 80.9607 and 67.5062 and 75.1918
- U2OS cell growth (500 nM, time 46 h): 76.6896 and 67.819 and 68.5995
- U2OS cell growth (500 nM, time 48 h): 85.4568 and 76.7529 and 77.7824
- U2OS cell growth (500 nM, time 50 h): 80.5839 and 72.0833 and 76.9956
- U2OS cell growth (500 nM, time 52 h): 83.8263 and 76.7093 and 82.3668
- U2OS cell growth (500 nM, time 54 h): 79.9481 and 72.7071 and 74.1223
- U2OS cell growth (500 nM, time 56 h): 87.162 and 80.7669 and 85.5542
- U2OS cell growth (500 nM, time 58 h): 90.4423 and 79.7888 and 88.2151
- U2OS cell growth (500 nM, time 60 h): 96.1652 and 88.6921 and 95.8515
- U2OS cell growth (500 nM, time 62 h): 94.001 and 86.5977 and 93.0844
- U2OS cell growth (500 nM, time 64 h): 96.4234 and 87.7997 and 90.4098
- U2OS cell growth (500 nM, time 66 h): 93.8474 and 88.5886 and 92.7486
- U2OS cell growth (500 nM, time 68 h): 97.3024 and 93.223 and 92.7077
- U2OS cell growth (500 nM, time 70 h): 92.1719 and 90.2272 and 97.1342
- U2OS cell growth (500 nM, time 72 h): 96.8429 and 92.5964 and 96.0803
- U2OS cell growth (1 uM, time 12 h): 23.4688 and 28.7975
- U2OS cell growth (1 uM, time 14 h): 43.1801 and 31.5471 and 34.3704
- U2OS cell growth (1 uM, time 16 h): 48.5114 and 40.5974 and 39.7626
- U2OS cell growth (1 uM, time 18 h): 49.1087 and 40.2889 and 36.2219
- U2OS cell growth (1 uM, time 20 h): 44.276 and 40.4638 and 40.4175
- U2OS cell growth (1 uM, time 22 h): 50.6338 and 35.4537 and 44.9267
- U2OS cell growth (1 uM, time 24 h): 50.7394 and 42.3213 and 43.1557
- U2OS cell growth (1 uM, time 26 h): 57.2306 and 39.6462 and 46.5806
- U2OS cell growth (1 uM, time 28 h): 56.0393 and 51.8942 and 43.3047
- U2OS cell growth (1 uM, time 30 h): 57.128 and 50.1384 and 48.8044
- U2OS cell growth (1 uM, time 32 h): 62.383 and 44.9795 and 51.7595
- U2OS cell growth (1 uM, time 34 h): 62.5996 and 44.0049 and 51.7696
- U2OS cell growth (1 uM, time 36 h): 63.4044 and 54.0518 and 58.8679
- U2OS cell growth (1 uM, time 38 h): 67.888 and 57.6638 and 55.5927
- U2OS cell growth (1 uM, time 40 h): 74.5097 and 64.1986 and 66.9349
- U2OS cell growth (1 uM, time 42 h): 75.7921 and 63.625 and 65.6012
- U2OS cell growth (1 uM, time 44 h): 76.6882 and 66.037 and 70.0103
- U2OS cell growth (1 uM, time 46 h): 80.5911 and 64.173 and 64.3277
- U2OS cell growth (1 uM, time 48 h): 82.8196 and 72.4697 and 70.6147
- U2OS cell growth (1 uM, time 50 h): 80.915 and 72.3635 and 70.6707
- U2OS cell growth (1 uM, time 52 h): 88.469 and 78.6078 and 78.2798
- U2OS cell growth (1 uM, time 54 h): 80.123 and 74.4528 and 70.0483
- U2OS cell growth (1 uM, time 56 h): 90.3104 and 83.4737 and 81.2576
- U2OS cell growth (1 uM, time 58 h): 92.1774 and 81.4101 and 79.8599
- U2OS cell growth (1 uM, time 60 h): 95.3333 and 89.0741 and 86.557
- U2OS cell growth (1 uM, time 62 h): 96.0195 and 87.0002 and 86.3753
- U2OS cell growth (1 uM, time 64 h): 95.9066 and 88.9368 and 89.6576
- U2OS cell growth (1 uM, time 66 h): 96.2061 and 94.0294 and 92.8016
- U2OS cell growth (1 uM, time 68 h): 97.3443 and 95.0497 and 91.8947
- U2OS cell growth (1 uM, time 70 h): 96.6759 and 92.6893 and 91.2966
- U2OS cell growth (1 uM, time 72 h): 97.1769 and 91.7585 and 92.6993
